Laboratory results as given in publication PMC9881131.
No constants are given. Whether binding was seen depends on the method and setting. In cells and extracts the contact can be indirect. Some entries that bind do so weakly or less than the wild type. Sequences can lack the tags named with a protein.

Chains of the proteins cited; added tags and fusions are not shown.
UniProt Q9UDV6: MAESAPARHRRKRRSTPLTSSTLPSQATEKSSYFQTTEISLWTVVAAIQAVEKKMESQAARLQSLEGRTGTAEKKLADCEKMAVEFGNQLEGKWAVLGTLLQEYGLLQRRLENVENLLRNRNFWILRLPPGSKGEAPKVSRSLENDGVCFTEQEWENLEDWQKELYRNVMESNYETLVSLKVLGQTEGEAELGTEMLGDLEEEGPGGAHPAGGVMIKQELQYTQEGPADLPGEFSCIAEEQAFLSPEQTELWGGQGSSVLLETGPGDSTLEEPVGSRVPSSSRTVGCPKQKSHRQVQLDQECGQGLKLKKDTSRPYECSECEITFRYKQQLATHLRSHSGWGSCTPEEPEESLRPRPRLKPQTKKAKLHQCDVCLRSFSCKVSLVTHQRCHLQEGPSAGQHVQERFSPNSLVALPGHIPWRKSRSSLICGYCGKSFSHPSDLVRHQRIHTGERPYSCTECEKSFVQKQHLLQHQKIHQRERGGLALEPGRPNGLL

Key:
Myc-ZNF212-WT (human) = Myc-ZNF212-WT (human) (UniProt Q9UDV6); assay: co-IP; 293T cells co-transfected with GFP-NEIL3 and Myc-ZNF212 WT or deletion mutants (N, M, C); 24 h; lysates with Benzonase; IP with anti-Myc bead, immunoblot
[1] = molecular target: SFB-ZNF212 wild type (human) (UniProt Q9UDV6); assay: co-IP; 293T cells co-transfected with SFB-ZNF212 and Myc-TRAIP (WT or D1 to D5); lysates (NETN buffer) with benzonase; IP with anti-Flag bead, blot with anti-Myc antibody

B1: GFP-NEIL3 (protein, UniProt Q8TAT5 1-605)
chain: MVEGPGCTLNGEKIRARVLPGQAVTGVRGSALRSLQGRALRLAASTVVVSPQAAALNNDSSQNVLSLFNGYVYSGVETLGKELFMYFGPKALRIHFGMKGFIMINPLEYKYKNGASPVLEVQLTKDLICFFDSSVELRNSMESQQRIRMMKELDVCSPEFSFLRAESEVKKQKGRMLGDVLMDQNVLPGVGNIIKNEALFDSGLHPAVKVCQLTDEQIHHLMKMIRDFSILFYRCRKAGLALSKHYKVYKRPNCGQCHCRITVCRFGDNNRMTYFCPHCQKENPQHVDICKLPTRNTIISWTSSRVDHVMDSVARKSEEHWTCVVCTLINKPSSKACDACLTSRPIDSVLKSEENSTVFSHLMKYPCNTFGKPHTEVKINRKTAFGTTTLVLTDFSNKSSTLERKTKQNQILDEEFQNSPPASVCLNDIQHPSKKTTNDITQPSSKVNISPTISSESKLFSPAHKKPKTAQYSSPELKSCNPGYSNSELQINMTDGPRTLNPDSPRCSKHNRLCILRVVGKDGENKGRQFYACPLPREAQCGFFEWADLSFPFCNHGKRSTMKTVLKIGPNNGKNFFVCPLGKEKQCNFFQWAENGPGIKIIPGC
With B1 the binding (Myc-ZNF212-WT (human)) was “binds”.

B2: Myc-TRAIP wild type (protein, UniProt Q9BWF2 1-469)
chain: MPIRALCTICSDFFDHSRDVAAIHCGHTFHLQCLIQWFETAPSRTCPQCRIQVGKRTIINKLFFDLAQEEENVLDAEFLKNELDNVRAQLSQKDKEKRDSQVIIDTLRDTLEERNATVVSLQQALGKAEMLCSTLKKQMKYLEQQQDETKQAQEEARRLRSKMKTMEQIELLLQSQRPEVEEMIRDMGVGQSAVEQLAVYCVSLKKEYENLKEARKASGEVADKLRKDLFSSRSKLQTVYSELDQAKLELKSAQKDLQSADKEIMSLKKKLTMLQETLNLPPVASETVDRLVLESPAPVEVNLKLRRPSFRDDIDLNATFDVDTPPARPSSSQHGYYEKLCLEKSHSPIQDVPKKICKGPRKESQLSLGGQSCAGEPDEELVGAFPIFVRNAILGQKQPKRPRSESSCSKDVVRTGFDGLGGRTKFIQPTDTVMIRPLPVKPKTKVKQRVRVKTVPSLFQAKLDTFLWS
For B2, the binding [1] was “binds”.
